The results in this text go back to PubChem BioAssay AID1347426 (Functional Genomics Laboratory (NCATS/FGL), 2020).

About 1,400 (4.5%) of roughly 31,000 sequences were called active.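 Rule for the calls: active = median seed-adjusted z-score above 1 or below -1; inactive = the rest.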 Some of the results follow.

A short description of this assay: Novel Modifiers of Survival Motor Neuron (SMN) Protein: Gene Identification via Genome-wide siRNA Screen.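 Note: luminescence tracks full-length SMN protein made from the SMN2 reporter.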 The conditions noted are these: HEK293T SMN2-luciferase reporter, siRNA knockdown, 72 h; actives lie on both sides. Summed up: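 Each of three siRNAs per gene is reverse-transfected (1 pmol) into reporter HEK293T cells whose luciferase output tracks SMN protein level. After 72 h culture, ONE-Glo luminescence is control-normalized, log10-transformed and MAD-standardized; Common Seed Analysis deprioritizes seed-driven hits.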
Turning to CAGAUGCAGCACUCACUUUTT against MMP17, the median seed-adjusted z-score was inactive: -0.653. With CCUCGGAUCCAUUCACGAATT against EPS15L1, the median seed-adjusted z-score is inactive: -0.0511.

Take CUACUACAACCGCUGCUAUTT against WFIKKN1: the median seed-adjusted z-score is inactive: 0. Next, GGAGGUUAUCAGUGACGAATT against TUBB4: inactive: 0.

In the case of GGCUGAUUGUAGCUUGUUATT against CLIC2, the median seed-adjusted z-score was inactive: -0.0124.

Consider GUUUGAUCUUGUUGACUAUTT against ASPH, for which the median seed-adjusted z-score was inactive: 0.0199.

On to GGUUGGUACUGCUAAUAAATT against VCL, for which the median seed-adjusted z-score is inactive: 0. CUCUCUCUCAGAUCACAAATT against GNB1: the median seed-adjusted z-score was inactive: -0.166. Consider CUAACGAAGAUUCACCCAATT against ASPN, for which the median seed-adjusted z-score was inactive: -0.0432.

Regarding CCCUUUCUAUGACCUCAGATT against DERL3, the median seed-adjusted z-score is inactive: 0.043.

As for CCGGAGUUUUUGUUGAUAATT against ZEB2, the median seed-adjusted z-score is inactive: 0.854. Take GCAUCGGGAAUAAAAUUUATT against LSM2: the median seed-adjusted z-score was active: -1.48. Next, GCCUGUGUGAGUCAGGAUATT against PRM3: inactive: 0.249; GUACUUCUGGAAUAACGAATT against PPP2R5A: inactive: 0.37. Next, AAGUGAACGUGGAUGCAGUTT against HBD: inactive: 0; CAGCUUCAGGAGAAUGAAATT against PPP1CC: inactive: -0.344. For GGAAGAGACUUGCUCAGUATT against MLF1 the value was inactive: 0.258; for CGGCGUAUCUUCACCAACATT against TAL1, inactive: -0.165; for GUAUGAAGGAUAUAGUUGATT against UGT1A6, inactive: -0.0939. Take GCAUUGCCCUCUACGAUGUTT against DOCK8: the median seed-adjusted z-score is inactive: 0.243. For CAUACGAGGUAUUAUCAAATT against DNAJB7 the value was inactive: 0.684; for AGCUGUCCCUCUUUGCUGUTT against TREX2, inactive: -0.918; for UGAGAGCCCUAUUCCAGUATT against UBASH3A, active: -1.1. As for GAUGUUAACCAGUAGAGCATT against SRCRB4D, the median seed-adjusted z-score was inactive: -0.0568. As for ACAUAGUAAAGACUUUCUATT against PIGA, the median seed-adjusted z-score was inactive: -0.0514. For the sequence CCUUCAGGGUUGUACUGAATT against NPR1, the median seed-adjusted z-score was inactive: -0.823.

On to ACACGGAGAAUAUUCUGAATT against CACNG7, for which the median seed-adjusted z-score is inactive: -0.403.

On to AGGUGCACAUGGUACUACATT against RPUSD3, for which the median seed-adjusted z-score is inactive: 0.303. Next, GCAGCGGUAUGGGAAAAGATT against PYY: inactive: 0.437; CCUAUGACCUAGACUAUUATT against GPR1: inactive: 0.0609.

For CGUCCUUUGUGGAGACCAATT against PLCB3, the median seed-adjusted z-score is inactive: 0. Next, CUCAUAAACUUGCUAUGGATT against PNPT1: inactive: 0.0729; AGUUCAAGGGCAUCAAGAATT against GTF2F1: inactive: -0.556. For GCAUCCCGCAGGCAAUCUUTT against ONECUT3 the value was inactive: -0.653; for GACGGAGAAUUCUAUGAAATT against FSTL5, inactive: -0.881; for CGGUUAAAGAAAACGAUGATT against FAHD1, inactive: -0.157. For GCAUACCUGAGAUCUAUGATT against RGS1 the value was inactive: 0.329; for GGUUGGGAAUGUAUCGUGATT against TTC8, inactive: 0.

On to GGCUGAGCAUUAUAAGAAATT against KRT6A, for which the median seed-adjusted z-score was inactive: -0.146.

With AAAGCACAGUGUUAAAUGATT against TAC1, the median seed-adjusted z-score is inactive: 0.0499. In the case of CGGGAAGUGUAAGAAGCAATT against ZNF341, the median seed-adjusted z-score was inactive: 0.356.

For the sequence GGACUCCAACGGCUUCUCATT against SYT3, the median seed-adjusted z-score was inactive: 0.221. For GGAAGCUAAUAAAAACAUUTT against RGS20 the value was inactive: -0.34; for CUGGUGGUCCGAAACCAUATT against ACP6, inactive: -0.631; for GUAAGACCCAUGUCAGAUATT against KIF21A, inactive: 0.53. Next, GAGUGAUCCUUUCCAUGAATT against PTPRE: inactive: 0.619; CCAGGAGAGUAAAGACUCATT against MRPS28: inactive: -0.022. Next, CGAUGUCUACUGUUGUGGATT against KCTD14: inactive: -0.166. For the sequence CACCGUCACCUUUAACCAATT against STAB1, the median seed-adjusted z-score was inactive: 0.264. On to GAUCCUCACAGAAUUUGAATT against TRIM31, for which the median seed-adjusted z-score is inactive: -0.167. Take GCCUCGCUGUGAUCUGAUUTT against CACNG6: the median seed-adjusted z-score was inactive: -0.0499. Turning to GGAGAUUGCUGGACAUAUATT against PUM1, the median seed-adjusted z-score is inactive: 0.109. Turning to CGCUCUACCAGACCUCCUATT against GSX1, the median seed-adjusted z-score is inactive: 0.677. Next, GCUUCUCGAUGUGAACGAATT against RUNX1T1: inactive: 0.181. Next, AGCUCCACCUGACACCUUUTT against POLR3E: inactive: -0.55. Next, GACCUAAAGUUGUGGGAGATT against SMARCE1: inactive: 0. As to GACCUCUACCGAGAUGUGATT against ZNF789, the median seed-adjusted z-score is inactive: 0.0534. On to GGCAGAUGUUUUUCACGCATT against CAND1, for which the median seed-adjusted z-score was inactive: 0.157.

Turning to GCUUUACAGAGGUUCCGAATT against SKIV2L2, the median seed-adjusted z-score is inactive: 0.642. Take GACAUAAUUAGAUUACGAATT against STK3: the median seed-adjusted z-score was inactive: 0.108. Next, GAAAGAACCUUUGAAUACATT against ZNF382: inactive: 0.601. As for GGCUUGAAAUCCCACAAAATT against ZNF175, the median seed-adjusted z-score was inactive: -0.0194.

In the case of GUAGGGACCUUAGAAAGGATT against DGAT2L6, the median seed-adjusted z-score is inactive: -0.528. Regarding GAACCGUGAUGGUAUUAUATT against MYLPF, the median seed-adjusted z-score was inactive: 0.348. For GCUCUAUUCCCUCAAGUUUTT against KIFC3 the value was inactive: 0.54. With GCCUCUUCUUAGUUGAUGATT against RTN4, the median seed-adjusted z-score was inactive: -0.0191.

Regarding GGACUUUUGCGAGCAAGCATT against TSHZ1, the median seed-adjusted z-score was inactive: 0.526.

AGUUAGAGGUAGCAUUAUATT against FZD5: the median seed-adjusted z-score was inactive: -0.129. On to GUACCUCAAUUUAAUAUCUTT against UGCGL2, for which the median seed-adjusted z-score was inactive: -0.456.
